# PubChem BioAssay AID2685 (National Center for Advancing Translational Sciences (NCATS), 2010)
# The list shows a part of the results. Shown are side measurements of this screen, not its main read-out; they come without a call. Most of these compounds were active or inconclusive in the main read-out, so they are no random draw. The note in brackets gives the kind of curve behind each potency; many fits are weak.
# Test: qHTS Assay for Lipid Storage Modulators in Drosophila S3 Cells;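 for cell number change: cells counted by Cell Tracker Red CMTPX staining in the red channel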
# Details: BODIPY lipid droplet fluorescence, 18-24 h; for cell number change: measured here: cell count max response, cells fed with added oleic acid
# Method in brief: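 Laser-scanning cytometry quantifies lipid droplet accumulation (500–530 nm total intensity; droplet/cell object ratio) in oleic acid-fed (400 uM added) Drosophila S3 cells treated with a concentration series. 20 uM Triacsin C defined 100% inhibition.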
# [1] = measured here: cell number channel AC50, cells fed with added oleic acid
# [2] = measured here: lipid fluorescence (Fed channel) AC50, cells fed with added oleic acid
structure (smiles),measurement,setting,value
Cc1cccc(OCCC(=O)NCC(=O)Nc2cccc(C)c2C)c1,cell number change,,7.46%
same,AC50,[1],"6.51 µM [rising, single point]"
same,AC50,[2],"6.51 µM [rising, partial curve, poor fit]"
Cc1cccc(N(C(=O)c2snc(C(N)=O)c2N)C(C(=O)NC2CCCC2)c2ccncc2)c1 (centres undefined),cell number change,,3.85%
CC(C)NC(=O)[C@H](CSCc1ccccc1)N1Cc2ccccc2C1=O,cell number change,,12.1%
same,AC50,[2],"9.2 µM [rising, partial curve]"
c1csc(-c2nn[nH]n2)c1,cell number change,,-15.3%
same,AC50,[2],"29.1 µM [falling, single point]"
COc1ccc([N+](=O)[O-])cc1NC(=S)NC(NC(=O)C(c1ccccc1)c1ccccc1)C(Cl)(Cl)Cl (centres undefined),cell number change,,-34.6%
same,AC50,[1],"18.4 µM [falling, single point]"
same,AC50,[2],"29.1 µM [falling, single point]"
Cc1cc(OCC(=O)Nc2ccncc2)cc(C)c1Cl,cell number change,,-56.4%
same,AC50,[1],"9.2 µM [falling, partial curve]"
CC(=O)COC(=O)CNC(=O)c1ccc(Br)cc1,cell number change,,-20.1%
same,AC50,[1],"2.59 µM [falling, full curve, poor fit]"
same,AC50,[2],"16.4 µM [falling, partial curve]"
N#CC1(P(=O)(c2ccccc2)c2ccccc2)CC1,cell number change,,-2.28%
same,AC50,[2],"4.11 µM [falling, full curve, poor fit]"
O=C1Nc2ccccc2S/C1=C/NCc1ccccc1Cl,AC50,[2],"0.326 µM [rising, single point]"
Cc1nnc(NC(=O)C2C3C=CC(O3)C2C(=O)O)s1 (centres undefined),cell number change,,-3.94%
same,AC50,[1],"0.92 µM [falling, single point]"
same,AC50,[2],"0.651 µM [falling, single point]"
Cc1ccccc1Oc1nc2c(C)cccn2c(=O)c1/C=C(\C#N)C(=O)NC1CCS(=O)(=O)C1 (centres undefined),cell number change,,-8.17%
same,AC50,[2],"0.0058 µM [falling, full curve, poor fit]"
O=c1oc2ccccc2c(NCCc2ccccc2)c1[N+](=O)[O-],cell number change,,0.569%
same,AC50,[2],"6.51 µM [falling, single point]"
CC(OC(=O)/C=C/c1ccc2ccccc2n1)C(=O)NCc1ccccc1 (centres undefined),cell number change,,43.8%
same,AC50,[1],"16.4 µM [rising, single point]"
COc1ccc(/C=C/C(=O)OCC(=O)NCC2CCCO2)cc1 (centres undefined),cell number change,,2.26%
same,AC50,[1],"0.13 µM [rising, full curve, poor fit]"
same,AC50,[2],"4.11 µM [rising, full curve]"
N=C(c1cccc([N+](=O)[O-])c1)N1CCCCCC1,cell number change,,2%
same,AC50,[2],"1.84 µM [falling, partial curve, poor fit]"
O=C(/C=C1\SC(=O)N(CC(=O)Nc2ccc(Cl)cc2)C1=O)Nc1ccc(F)cc1,cell number change,,5.8%
Cc1nnc(Sc2cc(C(=O)NCCCOC(C)C)c3ccccc3n2)s1,cell number change,,12.3%
same,AC50,[2],"18.4 µM [rising, partial curve]"
CCOC(=O)Cn1c(C)cc(=O)c2cccc(C)c21,cell number change,,-1.68%
Cc1cc(Cl)ccc1N=c1ssnc1Cl,cell number change,,-17.1%
same,AC50,[2],"18.4 µM [falling, single point]"
Cc1noc(C)c1CSCC(=O)Nc1nc2ccc(Oc3ccccc3)cc2s1,AC50,[1],"0.103 µM [rising, partial curve, poor fit]"
same,AC50,[2],"20.6 µM [falling, single point]"
COc1ccc(C2C(C(C)=O)=C(O)C(=O)N2c2ccc(F)cc2)cc1 (centres undefined),cell number change,,-1.93%
same,AC50,[2],"0.184 µM [falling, full curve, poor fit]"
CC(C)OC(=O)Cn1nnc(-c2ccccc2)n1,cell number change,,4.83%
same,AC50,[2],"0.184 µM [falling, full curve, poor fit]"
COc1ccc(OC)c(C2=NS(=O)(=O)N(C)C(C(=O)NCc3cccs3)=C2)c1,cell number change,,-14.3%
same,AC50,[2],"10.3 µM [falling, partial curve]"
CCOc1ccc(-c2c[n+]3c(n2-c2ccccc2)CCCCC3)cc1,cell number change,,-28.3%
same,AC50,[2],"18.4 µM [falling, partial curve]"
O=S(=O)(c1cc(F)ccc1F)N1CCN2CCCC2C1 (centres undefined),cell number change,,14.2%
same,AC50,[2],"29.1 µM [rising, single point]"
COc1ccccc1NC(=O)CN1C(=O)COc2ccc(S(=O)(=O)N3CCCCCC3)cc21,cell number change,,-1.53%
same,AC50,[2],"29.1 µM [rising, single point]"
COc1cc(O)c2c(c1)OC(C)(C)CC2=O,AC50,[2],"5.8 µM [falling, single point]"
O=C(O)C1C2C=CC(C2)C1C(=O)Nc1cccc(Cl)c1 (centres undefined),cell number change,,8.33%
Cc1cc(C)n(CC(=O)NC2CCCN(Cc3ccc(Cl)cc3)C2)n1 (centres undefined),AC50,[2],"29.1 µM [rising, single point]"
Cc1ccsc1C(=O)N1CCN(c2ncccn2)CC1,cell number change,,-67%
same,AC50,[1],"29.1 µM [falling, single point]"
same,AC50,[2],"29.1 µM [falling, single point]"

# As a short view, part of the list above:
structure (smiles),measurement,setting,value
Cc1cc(Cl)ccc1N=c1ssnc1Cl,AC50,[2],"18.4 µM [falling, single point]"
Cc1noc(C)c1CSCC(=O)Nc1nc2ccc(Oc3ccccc3)cc2s1,AC50,[1],"0.103 µM [rising, partial curve, poor fit]"
same,AC50,[2],"20.6 µM [falling, single point]"
COc1ccc(C2C(C(C)=O)=C(O)C(=O)N2c2ccc(F)cc2)cc1 (centres undefined),cell number change,,-1.93%
same,AC50,[2],"0.184 µM [falling, full curve, poor fit]"
